PubChem BioAssay AID504786 | Drosophila RNAi Screening Center, 2011

Screen: 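Fly genes required for HIF-dependent transcription when hypoxia is mimicked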 (primary screen)
System: Drosophila S2 cells with a stable HIF luciferase reporter
Reagent: long dsRNA against Drosophila genes, about 0.2 µg dsRNA per well of a 384-well plate
Time to read-out: three days of knock-down, then 20 h of DFO before reading
Treatment: desferrioxamine (DFO) at 100 µM, an iron chelator that mimics hypoxia, for 20 h
Measured: 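HIF reporter luminescence in cells given 100 µM DFO for 20 h, using the mouse ldh-a hypoxia-response element, scored as per-plate z-scores; higher means greater loss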
Scale: z-score: higher = stronger loss of HIF reporter signal
The screen tested about 21,000 reagents; this is a random part of those that have a named target and a result. 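Primary screen; positive scores mean lost reporter signal, so the sign may be inverted from the usual convention.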 Not all columns of the deposit are shown.

The first 3 records as a preview:
CG12688 (retired record) [DRSC17877]
- z-score, replicate 1: -0.3

CG12688 (retired record) [DRSC17878]
- z-score, replicate 1: -0.3

CG34242 [DRSC09185]
- z-score, replicate 1: -0.1

Main list, from the start:
CG12688 (retired record) [DRSC17877]
- z-score, replicate 1: -0.3

CG12688 (retired record) [DRSC17878]
- z-score, replicate 1: -0.3

CG34242 [DRSC09185]
- z-score, replicate 1: -0.1

Hat1 [DRSC12298]
- z-score, replicate 1: -0.4

az2 [DRSC07580]
- z-score, replicate 1: 0

CG3198 [DRSC18292]
- z-score, replicate 1: 0.2

prel [DRSC07271]
- z-score, replicate 1: -0.4

spin [DRSC07176]
- z-score, replicate 1: -0.2

ppk30 [DRSC15302]
- z-score, replicate 1: -0.5

fs(1)Yb [DRSC18777]
- z-score, replicate 1: -0.3

Vago [DRSC19833]
- z-score, replicate 1: -0.3

CG42450 [DRSC20022]
- z-score, replicate 1: -0.3

CG2875 [DRSC18231]
- z-score, replicate 1: -0.2

Cyp12e1 [DRSC16622]
- z-score, replicate 1: -0.2

Gos28 [DRSC16292]
- z-score, replicate 1: -1.4

Fbxl7 [DRSC15553]
- z-score, replicate 1: -0.4

gbb [DRSC04687]
- z-score, replicate 1: -0.4

twf [DRSC15466]
- z-score, replicate 1: -0.4

Phs [DRSC10827]
- z-score, replicate 1: -0.1

Cpr64Aa [DRSC08460]
- z-score, replicate 1: -0.5

Hmt-1 [DRSC15555]
- z-score, replicate 1: -0.2

Sfxn2 [DRSC10718]
- z-score, replicate 1: -0.3

CG15515 [DRSC15054]
- z-score, replicate 1: -0.2

Sec20 [DRSC12295]
- z-score, replicate 1: -0.5

E(spl)mgamma-HLH [DRSC16699]
- z-score, replicate 1: -0.5

Tmep [DRSC08215]
- z-score, replicate 1: -0.2

Cpsf100 [DRSC14146]
- z-score, replicate 1: 1

CG31145 [DRSC13634]
- z-score, replicate 1: 0

CG31145 [DRSC14206]
- z-score, replicate 1: 1.3

CG31145 [DRSC14670]
- z-score, replicate 1: 4.6

CG31145 [DRSC14671]
- z-score, replicate 1: 0.5

CG6951 [DRSC10755]
- z-score, replicate 1: -0.1

tub [DRSC12389]
- z-score, replicate 1: -0.3

CG14356 [DRSC14819]
- z-score, replicate 1: 0

dob [DRSC19948]
- z-score, replicate 1: -0.3

CG4597 [DRSC10432]
- z-score, replicate 1: -0.2

Not1 [DRSC06787]
- z-score, replicate 1: 1.1

Not1 [DRSC06794]
- z-score, replicate 1: -0.3

Fuca [DRSC10591]
- z-score, replicate 1: -0.2

CG32572 [DRSC19525]
- z-score, replicate 1: -0.5

CG32572 [DRSC19526]
- z-score, replicate 1: -0.3

CG34167 [DRSC01525]
- z-score, replicate 1: -0.2

shf [DRSC18283]
- z-score, replicate 1: -0.4

CG32365 [DRSC10040]
- z-score, replicate 1: -0.2

CG32365 [DRSC10041]
- z-score, replicate 1: 4.7

CG32365 [DRSC10977]
- z-score, replicate 1: 2.1

CG33306 [DRSC01899]
- z-score, replicate 1: -0.3

CG11929 [DRSC00339]
- z-score, replicate 1: -0.2

CG2444 [DRSC19846]
- z-score, replicate 1: -0.3

CG7518 [DRSC16253]
- z-score, replicate 1: -0.3

CG3339 [DRSC13821]
- z-score, replicate 1: -0.1

CG3339 [DRSC15479]
- z-score, replicate 1: -0.4
